Measured values from patent US20110286916A1.
These are yes or no findings as the source states them, for the method shown. Some results given as binding are weak or reduced against the parent protein; the word gives no strength. Blank lines part the entries; values can stand above or below the binder they belong to.

Amino acid sequences for entries named in this document (tags omitted). A change or cut given only in a name is not applied to a line headed by its entry.
UniProt Q9UM47: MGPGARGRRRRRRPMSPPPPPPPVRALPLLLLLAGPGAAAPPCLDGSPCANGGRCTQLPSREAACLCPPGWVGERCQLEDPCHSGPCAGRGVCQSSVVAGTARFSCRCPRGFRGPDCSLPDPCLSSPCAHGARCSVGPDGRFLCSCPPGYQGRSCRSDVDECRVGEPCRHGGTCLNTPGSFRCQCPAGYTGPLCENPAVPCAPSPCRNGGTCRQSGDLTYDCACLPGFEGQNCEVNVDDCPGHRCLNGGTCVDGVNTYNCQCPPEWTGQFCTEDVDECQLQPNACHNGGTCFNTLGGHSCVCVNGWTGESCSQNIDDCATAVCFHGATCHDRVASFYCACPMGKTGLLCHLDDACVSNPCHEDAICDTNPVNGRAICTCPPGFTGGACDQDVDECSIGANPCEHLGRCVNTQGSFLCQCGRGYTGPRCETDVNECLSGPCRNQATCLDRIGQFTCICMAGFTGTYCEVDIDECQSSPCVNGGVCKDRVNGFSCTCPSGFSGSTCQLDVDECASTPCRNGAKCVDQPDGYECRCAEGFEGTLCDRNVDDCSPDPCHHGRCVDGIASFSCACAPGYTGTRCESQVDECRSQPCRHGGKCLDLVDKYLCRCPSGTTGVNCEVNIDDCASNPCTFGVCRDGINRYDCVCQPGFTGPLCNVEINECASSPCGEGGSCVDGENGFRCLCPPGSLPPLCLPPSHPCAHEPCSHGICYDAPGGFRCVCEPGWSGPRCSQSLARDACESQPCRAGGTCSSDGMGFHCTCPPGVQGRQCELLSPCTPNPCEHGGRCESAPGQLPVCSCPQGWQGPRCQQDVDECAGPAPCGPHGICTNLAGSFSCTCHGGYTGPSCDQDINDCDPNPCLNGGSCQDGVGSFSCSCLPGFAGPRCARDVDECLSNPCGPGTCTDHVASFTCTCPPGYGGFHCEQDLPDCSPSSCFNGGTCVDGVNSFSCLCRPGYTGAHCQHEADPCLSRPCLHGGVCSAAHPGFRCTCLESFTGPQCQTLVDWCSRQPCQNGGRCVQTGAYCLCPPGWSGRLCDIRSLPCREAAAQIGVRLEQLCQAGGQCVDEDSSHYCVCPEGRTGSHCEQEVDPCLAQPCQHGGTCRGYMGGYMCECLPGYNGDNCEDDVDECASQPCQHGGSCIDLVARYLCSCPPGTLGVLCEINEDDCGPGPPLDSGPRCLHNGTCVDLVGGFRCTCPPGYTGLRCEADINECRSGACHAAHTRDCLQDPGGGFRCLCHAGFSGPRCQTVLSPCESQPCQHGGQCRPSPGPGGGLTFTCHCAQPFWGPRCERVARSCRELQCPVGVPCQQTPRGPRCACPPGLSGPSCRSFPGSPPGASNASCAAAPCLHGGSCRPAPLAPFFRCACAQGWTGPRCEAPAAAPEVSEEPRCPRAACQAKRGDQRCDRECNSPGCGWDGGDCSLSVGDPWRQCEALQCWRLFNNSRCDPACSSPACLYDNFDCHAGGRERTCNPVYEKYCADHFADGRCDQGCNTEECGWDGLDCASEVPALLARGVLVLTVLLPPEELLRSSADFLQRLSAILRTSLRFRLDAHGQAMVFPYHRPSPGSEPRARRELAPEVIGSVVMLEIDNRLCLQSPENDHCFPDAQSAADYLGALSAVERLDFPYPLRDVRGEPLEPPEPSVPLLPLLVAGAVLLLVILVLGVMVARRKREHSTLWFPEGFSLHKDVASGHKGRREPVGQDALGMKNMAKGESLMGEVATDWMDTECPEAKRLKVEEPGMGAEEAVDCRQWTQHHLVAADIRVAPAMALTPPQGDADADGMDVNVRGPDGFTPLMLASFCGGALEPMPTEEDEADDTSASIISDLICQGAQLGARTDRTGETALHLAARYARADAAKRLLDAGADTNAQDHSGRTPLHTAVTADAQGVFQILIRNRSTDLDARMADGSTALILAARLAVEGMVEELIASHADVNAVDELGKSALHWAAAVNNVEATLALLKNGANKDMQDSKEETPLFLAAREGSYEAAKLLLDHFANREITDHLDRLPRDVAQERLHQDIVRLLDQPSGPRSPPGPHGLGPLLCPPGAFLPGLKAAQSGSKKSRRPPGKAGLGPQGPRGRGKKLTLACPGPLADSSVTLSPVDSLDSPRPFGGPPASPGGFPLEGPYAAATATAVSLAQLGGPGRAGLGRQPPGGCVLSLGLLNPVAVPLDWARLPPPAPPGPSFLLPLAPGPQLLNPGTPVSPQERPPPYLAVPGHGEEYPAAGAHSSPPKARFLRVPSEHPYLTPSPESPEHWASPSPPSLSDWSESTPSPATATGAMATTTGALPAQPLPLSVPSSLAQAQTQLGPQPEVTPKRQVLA

Biological target: human full-length Notch3 with C-terminal FLAG tag, stably expressed on 293 FlpIn (TREx) cells (human) (UniProt Q9UM47)
Experiment: FACS, IgG on 293-N3 cells

binding: binds
B1: A673-C2-110 (antibody, human IgG1, lambda, V domains shown)
VH: QVQLVQSGTEVKKPGASVRVSCKPSADTFTSYYVHWVRQAPGQGLEWMGTINPTGTYTRYAQQFQGRVTVTRDTSTSSVYMELSSLRSEDSAVYYCARDVRPYTAMYSFDNWGRGTTVTVSS
VL: SYVLTQPPSVSVSPGQTATITCSGDALPKQYANWYQQKPGQAPVLMIYKDSDRPSGIPERFSGSSSGTKATLTISGVQAEDEADYYCQSADNSGTNYVFGTGTKLTVLG

binding: binds
B2: FL-SKNAS-C2-514 (antibody, human IgG1, lambda, V domains shown)
VH: EVQLVQSGAEVKEPGESLRISCKASGYDFSNYWIAWVRQMPGKGLEWMGIIYPGDSDTRYSPSFQGQVTISVDRSISTAYLQWSSLKASDTALYYCSRPTYWSTTWGREFDYWGQGTLVTVSS
VL: SYELTQPPSVSVSPGQTATITCSGDALPKKYAYWYQQKSGQAPVLVVYEDSKRPSGIPERFSGSSSGTMATLTISGAQVEDEADYYCYSTDSSGNHWVFGGGTKLTVLG
